Measurements reported in US20170050044A1, “Integumentary System Therapy” (priority 2015, published 2017).
Some of these results come from one statement about several compounds together.

Tested on: skin of a human volunteer
Assay: Natural exfoliation and epidermal maturation remove intradermal dye from the skin (Example 2)
Details: visual

O=S(=O)([O-])c1ccc(/N=N/c2c(O)ccc3ccccc23)cc1.[Na+] [acid orange]
reduction in colour intensity in skin (about 4 days after removal of the electrodes): at least 80%
reduction in colour intensity in skin (about 7 days after removal of the electrodes): at least 90%
